Data: article PMC9343881
These are yes or no findings as the source states them, for the method shown. In cells and extracts the contact can be indirect. Some entries that bind do so weakly or less than the wild type. Where a sequence is shown, tags or fusion partners need not be part of it.

B1: Flag-tagged YWHAG (tyrosine 3-monooxygenase/tryptophan 5-monooxygenase activation protein gamma) (protein, UniProt P61981 1-247)
chain: MVDREQLVQKARLAEQAERYDDMAAAMKNVTELNEPLSNEERNLLSVAYKNVVGARRSSWRVISSIEQKTSADGNEKKIEMVRAYREKIEKELEAVCQDVLSLLDNYLIKNCSETQYESKVFYLKMKGDYYRYLAEVATGEKRATVVESSEKAYSEAHEISKEHMQPTHPIRLGLALNYSVFYYEIQNAPEQACHLAKTAFDDAIAELDTLNEDSYKDSTLIMQLLRDNLTLWTSDQQDDDGGEGNN

Molecular target: Myc-tagged M2 (influenza A virus matrix protein 2, A/Puerto Rico/8/34 H1N1) (influenza A virus A/Puerto Rico/8/34 H1N1 (PR8)) (UniProt P06821)
Assay: co-IP

Molecule | binding
Flag-tagged YWHAG H195S mutant (from UniProt P61981 1-247) | binds
B1 | binds
